Patent US20260265321A1, “PEPTIDE AND POLYPEPTIDE INHIBITING THE NF-KB SIGNALING PATHWAY” (Centre National de la Recherche Scientifique, priority 2023, published 2026)
These are yes or no findings as the source states them, for the method shown. Some binding calls cover weakened binding; strength is not graded here. Tags and fused reporters may be left off the sequences shown.

Legend:
[1] = biological target: T1, 6×His-IKKα(10-667) EE (human) (UniProt O15111); assay: MBP pulldown on amylose resin, eluate on one stained SDS-PAGE gel that shows His-IKKα (10-667) and the MBP-peptides
T1 sequence (looked up): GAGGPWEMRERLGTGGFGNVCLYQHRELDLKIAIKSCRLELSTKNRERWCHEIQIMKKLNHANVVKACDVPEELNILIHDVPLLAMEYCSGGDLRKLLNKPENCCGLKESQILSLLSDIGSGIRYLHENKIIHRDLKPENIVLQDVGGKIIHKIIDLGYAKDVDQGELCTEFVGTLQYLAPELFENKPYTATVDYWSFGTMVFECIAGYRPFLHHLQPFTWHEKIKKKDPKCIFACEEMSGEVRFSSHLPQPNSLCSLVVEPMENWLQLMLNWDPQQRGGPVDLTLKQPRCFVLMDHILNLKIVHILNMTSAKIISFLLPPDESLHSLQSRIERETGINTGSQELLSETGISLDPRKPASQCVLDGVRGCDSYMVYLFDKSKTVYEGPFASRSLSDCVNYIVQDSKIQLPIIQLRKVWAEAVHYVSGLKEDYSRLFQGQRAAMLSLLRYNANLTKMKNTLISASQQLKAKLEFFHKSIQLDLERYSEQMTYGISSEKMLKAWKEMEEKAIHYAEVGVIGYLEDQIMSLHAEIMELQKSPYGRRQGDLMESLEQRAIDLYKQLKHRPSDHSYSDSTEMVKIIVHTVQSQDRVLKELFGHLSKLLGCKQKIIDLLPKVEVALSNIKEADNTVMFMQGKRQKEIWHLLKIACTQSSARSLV

[2] = biological target: T2, 6×His-IKKβ(1-669) EE (human) (UniProt O14920); assay: MBP pulldown on amylose resin with purified 6×His-IKKβ(1-669) EE, anti-His blot band quantified, % of WT, mean ± SD of three experiments
T2 sequence (looked up): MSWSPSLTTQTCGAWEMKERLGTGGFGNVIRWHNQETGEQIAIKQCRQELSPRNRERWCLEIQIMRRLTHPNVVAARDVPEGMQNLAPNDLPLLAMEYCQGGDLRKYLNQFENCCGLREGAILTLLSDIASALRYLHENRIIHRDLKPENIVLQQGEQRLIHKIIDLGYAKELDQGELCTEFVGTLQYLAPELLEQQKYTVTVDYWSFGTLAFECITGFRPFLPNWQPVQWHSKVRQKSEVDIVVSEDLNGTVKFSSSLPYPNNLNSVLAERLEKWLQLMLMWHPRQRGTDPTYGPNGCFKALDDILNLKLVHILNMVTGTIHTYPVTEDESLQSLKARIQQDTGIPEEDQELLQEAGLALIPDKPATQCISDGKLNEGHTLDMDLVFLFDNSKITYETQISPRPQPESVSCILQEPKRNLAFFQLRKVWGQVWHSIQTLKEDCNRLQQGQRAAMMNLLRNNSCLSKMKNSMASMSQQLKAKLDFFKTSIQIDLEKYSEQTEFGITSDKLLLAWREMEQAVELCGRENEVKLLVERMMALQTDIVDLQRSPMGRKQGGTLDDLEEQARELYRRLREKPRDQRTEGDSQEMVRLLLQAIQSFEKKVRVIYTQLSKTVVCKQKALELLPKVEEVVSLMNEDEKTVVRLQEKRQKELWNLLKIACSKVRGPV

[3] = biological target: T1, 6×His-IKKα(10-667) EE (human); assay: MBP pulldown on amylose resin with purified 6×His-IKKα(10-667) EE, anti-His blot band quantified, % of WT, mean ± SD of three experiments
[4] = biological target: T1, 6×His-IKKα(10-667) EE (human); assay: MBP pulldown, anti-His Western blot (FIG. 13A left panel, FIG. 13B)
[5] = biological target: T2, 6×His-IKKβ(1-669) EE (human); assay: MBP pulldown, purified proteins
[6] = biological target: T2, 6×His-IKKβ(1-669) EE (human); assay: MBP pulldown on amylose resin with purified 6×His-IKKβ(1-669) EE, anti-His Western blot; MBP fusions by Coomassie
[7] = biological target: T2, 6×His-IKKβ(1-669) EE (human); assay: MBP pulldown, anti-His Western blot (FIG. 13A, right panel)
[8] = biological target: T1, 6×His-IKKα(10-667) EE (human); assay: MBP pulldown on amylose resin with purified 6×His-IKKα(10-667) EE, anti-His Western blot; MBP fusions by Coomassie
[9] = biological target: T3, IKKα/β heterodimer of Strep-IKKα(10-667) EE and 6×His-IKKβ(1-669) EE (human) (UniProt O15111+O14920); assay: MBP pulldown
T3 sequence (looked up) 1: T1 sequence (looked up)
T3 sequence (looked up) 2: T2 sequence (looked up)

Measured: binding

B1: MBP-IκBα 301-317 (peptide, not shown: large carriers)
chain: DELPYDDCVFGGQRLTL
binds: [1] | [2] | [3] | [4] | [5]

B2: synthetic IκBα pep wt (residues 297-317 of IκBα) (peptide)
peptide: EFTEDELPYDDCVFGGQRLTL
notes: HPLC purified synthetic peptide; also called IkBα pep wt; P1
not listed: [2] | [3] | [5]
binds: all other assays above

B3: MBP-IκBβ pep (peptide, not shown: large carriers)
chain: DSGDEGDEYDDIVVHSSRSQT
binds: [6] | [7] | [8] | [4]

B4: MBP-p100 pep (peptide, not shown: large carriers)
chain: PGLDGIIEYDDFKLNSSIVEP
binds: [8] | [4]

B5: MBP-IRF7 pep (peptide, not shown: large carriers)
chain: CLSSANSLYDDIECFLMELEQ
binds: [8] | [4]

B6: MBP-IκBα 303-317 (peptide, not shown: large carriers)
chain: LPYDDCVFGGQRLTL
binds: [1] | [4]

B7: MBP-IκBα 305-317 (peptide, not shown: large carriers)
chain: YDDCVFGGQRLTL
binds: [1] | [4]

B8: MBP-IκBα 301-310 (peptide, not shown: large carriers)
chain: DELPYDDCVF
binds: [1] | [4]
